Experimental data as given in the supplement of paper PMC8728848.
The list shows a part of the results.

What was measured:
Experiment in all cases: glycan array binding signal (z-score within array); higher = stronger binding
Conditions in all cases: glycan notation: IUPAC condensed, linker removed
[1] = biological target: Man(a1-2)Man(a1-3)[Man(a1-2)Man(a1-6)]Man(a1-6)[Man(a1-2)Man(a1-2)Man(a1-3)]Man
In short: (§1)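 Glycan array binding is given as a within-array Z-score, which can be read as non-binding when negative. The arrays, 3228 of them, came from the Consortium for Functional Glycomics database and were retained only where the protein sequence was available. Z-scores were averaged across arrays of the same protein sequence at different concentrations or buffers and across linkers.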

[2] = biological target: Man(a1-2)Man(a1-3)[Man(a1-2)Man(a1-6)]Man(a1-6)[Man(a1-2)Man(a1-2)Man(a1-3)]Man(b1-4)GlcNAc(b1-4)GlcNAc
In short: as §1

[3] = biological target: Man(a1-2)Man(a1-3)[Man(a1-6)]Man(a1-6)[Man(a1-2)Man(a1-3)]Man(b1-4)GlcNAc(b1-4)GlcNAc
In short: as §1

[4] = biological target: Man(a1-2)Man(a1-6)[Man(a1-3)]Man(a1-6)[Man(a1-2)Man(a1-2)Man(a1-3)]Man
In short: as §1

[5] = biological target: Man(a1-2)Man(a1-6)[Man(a1-3)]Man(a1-6)[Man(a1-2)Man(a1-2)Man(a1-3)]Man(b1-4)GlcNAc(b1-4)GlcNAc
In short: as §1

[6] = biological target: Man(a1-3)[Man(a1-6)]Man
In short: as §1

[7] = biological target: Man(a1-3)[Man(a1-6)]Man(a1-6)[Man(a1-2)Man(a1-3)]Man(b1-4)GlcNAc(b1-4)GlcNAc
In short: as §1

[8] = biological target: Man(a1-3)[Man(a1-6)]Man(a1-6)[Man(a1-3)]Man
In short: as §1

[9] = biological target: Man(a1-3)[Man(a1-6)]Man(a1-6)[Man(a1-3)]Man(b1-4)GlcNAc(b1-4)GlcNAc
In short: as §1

[10] = biological target: Man(a1-3)[Man(a1-6)]Man(b1-4)GlcNAc(b1-4)GlcNAc
In short: as §1

[11] = biological target: Man(a1-3)[Man(a1-6)]Man(b1-4)GlcNAc(b1-4)[Fuc(a1-6)]GlcNAc
In short: as §1

[12] = biological target: Man(a1-6)Man
In short: as §1

[13] = biological target: Man(b1-4)GlcNAc
In short: as §1

[14] = biological target: MurNAc(b1-4)GlcNAc
In short: as §1

[15] = biological target: Neu5Ac(a2-3)Gal
In short: as §1

[16] = biological target: Neu5Ac(a2-3)Gal(b1-3)GalNAc
In short: as §1

[17] = biological target: Neu5Ac(a2-3)Gal(b1-3)GalNAc(b1-3)Gal(a1-4)Gal(b1-4)Glc
In short: as §1

[18] = biological target: Neu5Ac(a2-3)Gal(b1-3)GalNAc(b1-4)[Neu5Ac(a2-3)]Gal(b1-4)Glc
In short: as §1

[19] = biological target: Neu5Ac(a2-3)Gal(b1-3)GalNAc(b1-4)[Neu5Ac(a2-8)Neu5Ac(a2-3)]Gal(b1-4)Glc
In short: as §1

[20] = biological target: Neu5Ac(a2-3)Gal(b1-3)GalNAc6S
In short: as §1

[21] = biological target: Neu5Ac(a2-3)Gal(b1-3)GlcNAc
In short: as §1

[22] = biological target: Neu5Ac(a2-3)Gal(b1-3)GlcNAc(b1-2)Man
In short: as §1

[23] = biological target: Neu5Ac(a2-3)Gal(b1-3)GlcNAc(b1-2)Man(a1-3)[GlcNAc(b1-4)][Neu5Ac(a2-3)Gal(b1-3)GlcNAc(b1-2)Man(a1-6)]Man(b1-4)GlcNAc(b1-4)GlcNAc
In short: as §1

[24] = biological target: Neu5Ac(a2-3)Gal(b1-3)GlcNAc(b1-2)Man(a1-3)[Neu5Ac(a2-3)Gal(b1-3)GlcNAc(b1-2)Man(a1-6)]Man(b1-4)GlcNAc(b1-4)GlcNAc
In short: as §1

[25] = biological target: Neu5Ac(a2-3)Gal(b1-3)GlcNAc(b1-3)Gal(b1-3)GlcNAc
In short: as §1

[26] = biological target: Neu5Ac(a2-3)Gal(b1-3)GlcNAc(b1-3)Gal(b1-4)GlcNAc
In short: as §1

[27] = biological target: Neu5Ac(a2-3)Gal(b1-3)GlcNAc(b1-3)GalNAc
In short: as §1

[28] = biological target: Neu5Ac(a2-3)Gal(b1-3)GlcNAc(b1-4)Gal(b1-4)Glc
In short: as §1

[29] = biological target: Neu5Ac(a2-3)Gal(b1-3)GlcNAc(b1-6)GalNAc
In short: as §1

[30] = biological target: Neu5Ac(a2-3)Gal(b1-3)GlcNAc6S
In short: as §1

[31] = biological target: Neu5Ac(a2-3)Gal(b1-3)[Fuc(a1-4)]GlcNAc
In short: as §1

[32] = biological target: Neu5Ac(a2-3)Gal(b1-3)[Fuc(a1-4)]GlcNAc(b1-3)Gal(b1-3)[Fuc(a1-4)]GlcNAc
In short: as §1

[33] = biological target: Neu5Ac(a2-3)Gal(b1-3)[Fuc(a1-4)]GlcNAc(b1-3)Gal(b1-4)[Fuc(a1-3)]GlcNAc
In short: as §1

[34] = biological target: Neu5Ac(a2-3)Gal(b1-3)[GlcNAc(b1-6)]GalNAc
In short: as §1

[35] = biological target: Neu5Ac(a2-3)Gal(b1-3)[Neu5Ac(a2-6)]GalNAc
In short: as §1

[36] = biological target: Neu5Ac(a2-3)Gal(b1-3)[Neu5Ac(a2-6)]GlcNAc(b1-3)[Fuc(a1-3)[Gal(b1-4)]GlcNAc(b1-6)]Gal(b1-4)Glc
In short: as §1

[37] = biological target: Neu5Ac(a2-3)Gal(b1-3)]Neu5Ac(a2-3)Gal(b1-4)]GlcNAc
In short: as §1

[38] = biological target: Neu5Ac(a2-3)Gal(b1-4)Glc
In short: as §1

[39] = biological target: Neu5Ac(a2-3)Gal(b1-4)GlcNAc
In short: as §1

[40] = biological target: Neu5Ac(a2-3)Gal(b1-4)GlcNAc(b1-2)Man
In short: as §1

[41] = biological target: Neu5Ac(a2-3)Gal(b1-4)GlcNAc(b1-2)Man(a1-3)[GlcNAc(b1-4)][Neu5Ac(a2-3)Gal(b1-4)GlcNAc(b1-2)Man(a1-6)]Man(b1-4)GlcNAc(b1-4)GlcNAc
In short: as §1

[42] = biological target: Neu5Ac(a2-3)Gal(b1-4)GlcNAc(b1-2)Man(a1-3)[Neu5Ac(a2-3)Gal(b1-4)GlcNAc(b1-2)Man(a1-6)]Man(b1-4)GlcNAc(b1-4)GlcNAc
In short: as §1

[43] = biological target: Neu5Ac(a2-3)Gal(b1-4)GlcNAc(b1-2)Man(a1-3)[Neu5Ac(a2-3)Gal(b1-4)GlcNAc(b1-2)Man(a1-6)]Man(b1-4)GlcNAc(b1-4)[Fuc(a1-6)]GlcNAc
In short: as §1

[44] = biological target: Neu5Ac(a2-3)Gal(b1-4)GlcNAc(b1-2)Man(a1-3)[Neu5Ac(a2-6)Gal(b1-4)GlcNAc(b1-2)Man(a1-6)]Man(b1-4)GlcNAc(b1-4)GlcNAc
In short: as §1

[45] = biological target: Neu5Ac(a2-3)Gal(b1-4)GlcNAc(b1-2)[Neu5Ac(a2-3)Gal(b1-4)GlcNAc(b1-4)]Man(a1-3)[GlcNAc(b1-4)][Neu5Ac(a2-3)Gal(b1-4)GlcNAc(b1-2)[Neu5Ac(a2-3)Gal(b1-4)GlcNAc(b1-6)]Man(a1-6)]Man(b1-4)GlcNAc(b1-4)GlcNAc
In short: as §1

B1: B3GalT2 (Rattus norvegicus) (protein)
chain: LMLQWRRRHCCFAKMSWNAKRSLFRTHLMGVLSLVFLFAMFLFFNHHDWLPGRPGFKENPVTYTFRGFRSTKTETNQSSLRNIWKEVVPQTLRPQTATNSNNTELSPQGVTGLENTLSANGSIYNEKGTGHPNSYHFKYIINEPEKCQEKSPFLILLIAAEPGQIEARRAIRQTWGNETLAPGIQITRIFLLGISIKLNGYLQHAIQEESIQYHDIIQQEYLDTYYNLTIKTLMGMNWVATYCPHTPYVMKTDSDMFVNTEYLIHKLLKPDLPPRHNYFTGYLMRGYAPNRNKDSKWYMPPDLYPSERYPVFCSGTGYVFSGDLAEKIFKVSLGIRRLHLEDVYVGICLAKLRVDPVPPPNEFVFNHWRVSYSSCKYSHLITSHQFQPSELIKYWNHLQQNKHNACVNAAKEKAGRYRHRKLH
Which “glycan array binding signal (z-score)” value [1] does the source give for B1 here?
Its value is -0.356.

What about the “glycan array binding signal (z-score)” value [2] of the same binder?
Its value is -0.337.

And the “glycan array binding signal (z-score)” value [3]?
Its value is -0.577.

What about the “glycan array binding signal (z-score)” value [4] of the same binder?
The value was 0.362.

What about the “glycan array binding signal (z-score)” value [5] of the same binder?
The value was -0.59.

What about the “glycan array binding signal (z-score)” value [6] of the same binder?
Its value is 1.52.

And the “glycan array binding signal (z-score)” value [7]?
The value was 0.16.

What about the “glycan array binding signal (z-score)” value [8] of the same binder?
The value was -0.373.

What about the “glycan array binding signal (z-score)” value [9] of the same binder?
Its value is 0.278.

What about the “glycan array binding signal (z-score)” value [10] of the same binder?
The value was -0.053.

And the “glycan array binding signal (z-score)” value [11]?
Its value is -1.04.

What about the “glycan array binding signal (z-score)” value [12] of the same binder?
Its value is 0.301.

And the “glycan array binding signal (z-score)” value [13]?
The value was 0.127.

And the “glycan array binding signal (z-score)” value [14]?
The value was 0.331.

And the “glycan array binding signal (z-score)” value [15]?
The value was -0.317.

And the “glycan array binding signal (z-score)” value [16]?
The value was 0.516.

And the “glycan array binding signal (z-score)” value [17]?
The value was -0.318.

What about the “glycan array binding signal (z-score)” value [18] of the same binder?
The value was 0.229.

What about the “glycan array binding signal (z-score)” value [19] of the same binder?
The value was -0.777.

And the “glycan array binding signal (z-score)” value [20]?
Its value is 1.34.

What about the “glycan array binding signal (z-score)” value [21] of the same binder?
Its value is 1.27.

What about the “glycan array binding signal (z-score)” value [22] of the same binder?
Its value is 1.06.

What about the “glycan array binding signal (z-score)” value [23] of the same binder?
Its value is 0.401.

What about the “glycan array binding signal (z-score)” value [24] of the same binder?
The value was -0.013.

And the “glycan array binding signal (z-score)” value [25]?
The value was -0.47.

What about the “glycan array binding signal (z-score)” value [26] of the same binder?
Its value is -0.897.

What about the “glycan array binding signal (z-score)” value [27] of the same binder?
The value was 0.242.

What about the “glycan array binding signal (z-score)” value [28] of the same binder?
The value was -0.852.

What about the “glycan array binding signal (z-score)” value [29] of the same binder?
The value was -0.836.

And the “glycan array binding signal (z-score)” value [30]?
Its value is -0.478.

And the “glycan array binding signal (z-score)” value [31]?
Its value is 0.763.

What about the “glycan array binding signal (z-score)” value [32] of the same binder?
The value was 0.59.

What about the “glycan array binding signal (z-score)” value [33] of the same binder?
Its value is -0.767.

What about the “glycan array binding signal (z-score)” value [34] of the same binder?
Its value is 0.584.

What about the “glycan array binding signal (z-score)” value [35] of the same binder?
The value was 0.042.

What about the “glycan array binding signal (z-score)” value [36] of the same binder?
The value was -1.05.

What about the “glycan array binding signal (z-score)” value [37] of the same binder?
The value was 1.02.

What about the “glycan array binding signal (z-score)” value [38] of the same binder?
The value was -0.224.

What about the “glycan array binding signal (z-score)” value [39] of the same binder?
Its value is 1.9.

And the “glycan array binding signal (z-score)” value [40]?
Its value is -0.736.

And the “glycan array binding signal (z-score)” value [41]?
The value was 0.483.

And the “glycan array binding signal (z-score)” value [42]?
Its value is 1.88.

And the “glycan array binding signal (z-score)” value [43]?
Its value is 0.417.

What about the “glycan array binding signal (z-score)” value [44] of the same binder?
Its value is 0.64.

What about the “glycan array binding signal (z-score)” value [45] of the same binder?
The value was 1.83.
